Source: the supplement of paper PMC10849652
The list shows a part of the results.

Chains of the proteins cited; added tags and fusions are not shown. Lines headed by an entry give the natural chain unless they say otherwise; changes in a name come on top.
UniProt O94851, whole entry, looked up: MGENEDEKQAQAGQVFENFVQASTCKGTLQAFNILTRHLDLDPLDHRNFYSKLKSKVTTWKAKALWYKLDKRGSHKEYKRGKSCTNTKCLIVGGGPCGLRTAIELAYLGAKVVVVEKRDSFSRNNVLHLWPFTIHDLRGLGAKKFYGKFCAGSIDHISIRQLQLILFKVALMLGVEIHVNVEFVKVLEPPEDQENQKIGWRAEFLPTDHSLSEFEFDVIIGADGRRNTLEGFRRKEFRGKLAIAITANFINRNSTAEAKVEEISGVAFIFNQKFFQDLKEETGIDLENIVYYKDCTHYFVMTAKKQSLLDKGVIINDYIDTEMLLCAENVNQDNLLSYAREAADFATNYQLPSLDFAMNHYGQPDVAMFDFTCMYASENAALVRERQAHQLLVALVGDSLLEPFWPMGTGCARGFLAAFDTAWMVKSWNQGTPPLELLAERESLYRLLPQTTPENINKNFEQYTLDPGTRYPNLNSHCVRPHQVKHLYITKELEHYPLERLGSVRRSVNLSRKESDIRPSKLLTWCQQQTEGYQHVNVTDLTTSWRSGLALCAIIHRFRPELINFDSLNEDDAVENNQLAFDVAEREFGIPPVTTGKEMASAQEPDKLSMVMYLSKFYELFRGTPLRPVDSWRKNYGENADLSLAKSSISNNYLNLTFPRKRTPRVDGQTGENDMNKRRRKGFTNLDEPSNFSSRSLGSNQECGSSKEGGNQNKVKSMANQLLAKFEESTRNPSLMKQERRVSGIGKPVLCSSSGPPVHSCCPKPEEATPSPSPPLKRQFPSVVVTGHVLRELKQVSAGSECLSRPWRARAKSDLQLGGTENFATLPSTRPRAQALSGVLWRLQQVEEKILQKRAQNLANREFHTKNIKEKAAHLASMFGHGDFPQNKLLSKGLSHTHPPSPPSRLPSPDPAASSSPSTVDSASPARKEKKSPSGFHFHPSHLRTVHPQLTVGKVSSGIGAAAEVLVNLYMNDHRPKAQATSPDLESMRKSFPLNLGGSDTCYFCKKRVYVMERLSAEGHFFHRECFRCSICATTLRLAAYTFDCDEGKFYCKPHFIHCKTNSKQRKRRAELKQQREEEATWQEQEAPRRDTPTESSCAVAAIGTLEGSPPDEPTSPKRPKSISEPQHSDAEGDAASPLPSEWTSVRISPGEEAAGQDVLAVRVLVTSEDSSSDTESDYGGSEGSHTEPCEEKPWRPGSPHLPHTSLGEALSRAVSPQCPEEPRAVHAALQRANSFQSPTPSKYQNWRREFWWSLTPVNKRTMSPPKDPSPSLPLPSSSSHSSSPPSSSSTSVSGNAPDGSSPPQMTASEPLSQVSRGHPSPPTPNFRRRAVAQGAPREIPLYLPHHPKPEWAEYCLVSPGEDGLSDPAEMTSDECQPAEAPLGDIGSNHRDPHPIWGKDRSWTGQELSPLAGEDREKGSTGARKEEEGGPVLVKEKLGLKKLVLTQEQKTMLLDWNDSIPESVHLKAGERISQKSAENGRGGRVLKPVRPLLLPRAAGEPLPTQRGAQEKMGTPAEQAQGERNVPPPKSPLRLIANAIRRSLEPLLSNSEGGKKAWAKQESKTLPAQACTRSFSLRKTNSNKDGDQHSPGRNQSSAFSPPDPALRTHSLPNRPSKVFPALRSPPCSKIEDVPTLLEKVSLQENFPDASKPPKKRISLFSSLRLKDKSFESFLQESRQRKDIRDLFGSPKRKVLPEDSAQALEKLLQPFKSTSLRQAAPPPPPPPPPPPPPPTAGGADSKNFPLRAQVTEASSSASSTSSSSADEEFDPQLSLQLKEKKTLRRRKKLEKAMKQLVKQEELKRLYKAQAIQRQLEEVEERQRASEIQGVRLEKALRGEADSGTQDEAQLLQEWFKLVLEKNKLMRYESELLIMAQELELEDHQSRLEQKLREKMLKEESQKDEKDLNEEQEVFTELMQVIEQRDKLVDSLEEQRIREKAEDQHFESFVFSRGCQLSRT
UniProt Q8NB16: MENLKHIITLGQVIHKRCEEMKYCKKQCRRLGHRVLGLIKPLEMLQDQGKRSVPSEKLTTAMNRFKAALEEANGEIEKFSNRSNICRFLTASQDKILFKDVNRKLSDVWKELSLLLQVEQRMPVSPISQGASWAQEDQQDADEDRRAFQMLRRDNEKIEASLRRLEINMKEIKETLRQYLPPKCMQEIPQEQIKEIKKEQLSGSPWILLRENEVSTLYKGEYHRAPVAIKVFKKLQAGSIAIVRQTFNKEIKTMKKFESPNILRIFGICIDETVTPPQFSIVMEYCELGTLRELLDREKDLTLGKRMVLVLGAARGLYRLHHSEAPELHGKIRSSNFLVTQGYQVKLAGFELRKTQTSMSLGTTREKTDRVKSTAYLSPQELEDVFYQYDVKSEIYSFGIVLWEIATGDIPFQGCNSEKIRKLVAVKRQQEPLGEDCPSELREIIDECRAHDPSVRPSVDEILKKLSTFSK
UniProt Q8N3F8: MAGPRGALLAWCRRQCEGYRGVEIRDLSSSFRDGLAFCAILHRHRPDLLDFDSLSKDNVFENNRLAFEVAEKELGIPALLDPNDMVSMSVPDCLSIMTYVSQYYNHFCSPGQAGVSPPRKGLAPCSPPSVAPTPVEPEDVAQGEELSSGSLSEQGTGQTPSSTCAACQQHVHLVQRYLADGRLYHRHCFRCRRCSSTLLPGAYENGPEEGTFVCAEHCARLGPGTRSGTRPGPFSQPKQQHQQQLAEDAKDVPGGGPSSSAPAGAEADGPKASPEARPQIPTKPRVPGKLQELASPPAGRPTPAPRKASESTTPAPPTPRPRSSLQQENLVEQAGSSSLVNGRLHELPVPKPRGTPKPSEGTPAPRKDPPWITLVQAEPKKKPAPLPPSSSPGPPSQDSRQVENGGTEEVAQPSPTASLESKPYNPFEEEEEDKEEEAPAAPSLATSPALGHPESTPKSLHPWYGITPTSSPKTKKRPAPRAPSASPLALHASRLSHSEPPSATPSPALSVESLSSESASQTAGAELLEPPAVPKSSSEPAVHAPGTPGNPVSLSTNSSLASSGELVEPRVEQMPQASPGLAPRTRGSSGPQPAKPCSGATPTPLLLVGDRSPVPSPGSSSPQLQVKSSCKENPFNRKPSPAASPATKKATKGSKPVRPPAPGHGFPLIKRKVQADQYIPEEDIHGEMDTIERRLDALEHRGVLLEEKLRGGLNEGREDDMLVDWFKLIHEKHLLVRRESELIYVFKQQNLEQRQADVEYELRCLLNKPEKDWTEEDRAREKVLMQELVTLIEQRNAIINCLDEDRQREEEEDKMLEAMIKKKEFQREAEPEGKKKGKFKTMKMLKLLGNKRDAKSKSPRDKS
UniProt Q9BVC4, whole entry, looked up: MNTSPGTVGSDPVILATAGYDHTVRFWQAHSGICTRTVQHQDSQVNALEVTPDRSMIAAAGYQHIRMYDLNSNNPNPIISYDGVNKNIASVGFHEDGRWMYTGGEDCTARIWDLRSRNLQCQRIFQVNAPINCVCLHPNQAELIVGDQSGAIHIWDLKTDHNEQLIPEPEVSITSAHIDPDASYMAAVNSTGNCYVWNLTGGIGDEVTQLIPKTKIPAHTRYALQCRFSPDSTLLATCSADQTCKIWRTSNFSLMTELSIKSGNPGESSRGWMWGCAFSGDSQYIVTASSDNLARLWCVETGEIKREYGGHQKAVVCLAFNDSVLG
UniProt O75030: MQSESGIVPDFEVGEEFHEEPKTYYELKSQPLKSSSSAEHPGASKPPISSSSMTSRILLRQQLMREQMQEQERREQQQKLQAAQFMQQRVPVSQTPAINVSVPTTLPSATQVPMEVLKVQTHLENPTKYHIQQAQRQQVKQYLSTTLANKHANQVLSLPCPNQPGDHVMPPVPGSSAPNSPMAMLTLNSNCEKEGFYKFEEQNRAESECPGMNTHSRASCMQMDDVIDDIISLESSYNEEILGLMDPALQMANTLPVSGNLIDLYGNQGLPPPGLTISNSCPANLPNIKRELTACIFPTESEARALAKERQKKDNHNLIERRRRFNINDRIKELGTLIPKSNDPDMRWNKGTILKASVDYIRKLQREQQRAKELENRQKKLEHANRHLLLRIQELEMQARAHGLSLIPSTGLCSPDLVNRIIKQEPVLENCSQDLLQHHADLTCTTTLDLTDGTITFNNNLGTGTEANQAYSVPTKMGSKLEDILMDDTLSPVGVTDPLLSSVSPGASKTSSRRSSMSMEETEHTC
UniProt P55197: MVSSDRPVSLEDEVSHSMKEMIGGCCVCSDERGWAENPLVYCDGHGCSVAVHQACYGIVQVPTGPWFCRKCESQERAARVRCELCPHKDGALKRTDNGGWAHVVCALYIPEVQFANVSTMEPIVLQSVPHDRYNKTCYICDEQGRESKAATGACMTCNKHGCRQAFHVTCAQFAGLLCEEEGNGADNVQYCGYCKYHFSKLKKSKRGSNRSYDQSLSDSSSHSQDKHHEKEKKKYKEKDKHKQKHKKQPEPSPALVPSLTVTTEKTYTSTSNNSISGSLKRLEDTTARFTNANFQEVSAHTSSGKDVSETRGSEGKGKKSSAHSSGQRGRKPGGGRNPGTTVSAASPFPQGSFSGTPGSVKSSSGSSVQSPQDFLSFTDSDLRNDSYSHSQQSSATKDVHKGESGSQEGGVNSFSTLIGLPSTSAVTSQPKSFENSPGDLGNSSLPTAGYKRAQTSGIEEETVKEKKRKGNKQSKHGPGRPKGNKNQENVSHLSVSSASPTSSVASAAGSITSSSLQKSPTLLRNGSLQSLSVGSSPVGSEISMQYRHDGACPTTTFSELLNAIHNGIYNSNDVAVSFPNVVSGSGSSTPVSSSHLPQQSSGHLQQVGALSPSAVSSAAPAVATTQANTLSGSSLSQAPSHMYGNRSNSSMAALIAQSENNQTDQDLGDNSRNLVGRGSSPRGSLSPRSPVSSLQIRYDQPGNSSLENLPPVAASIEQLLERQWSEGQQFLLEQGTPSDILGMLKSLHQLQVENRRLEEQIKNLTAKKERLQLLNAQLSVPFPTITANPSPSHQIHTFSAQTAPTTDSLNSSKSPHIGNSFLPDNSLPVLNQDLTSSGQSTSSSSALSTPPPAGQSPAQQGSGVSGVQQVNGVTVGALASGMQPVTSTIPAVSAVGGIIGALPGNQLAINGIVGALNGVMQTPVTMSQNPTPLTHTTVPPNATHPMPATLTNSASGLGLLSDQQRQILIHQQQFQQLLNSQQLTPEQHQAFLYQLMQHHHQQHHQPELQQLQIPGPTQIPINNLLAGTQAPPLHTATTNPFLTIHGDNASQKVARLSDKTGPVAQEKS
UniProt Q9Y5U8: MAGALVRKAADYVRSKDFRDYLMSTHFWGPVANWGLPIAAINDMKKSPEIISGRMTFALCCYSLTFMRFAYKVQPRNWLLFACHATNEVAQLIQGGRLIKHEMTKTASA

Experiments:
Assay in all cases: log2 fold change, soluble protein after heating vs DMSO (PISA); higher = thermal stabilisation; K562 cells, 10 uM, 30 min; active = over 0.2 and 3.5 SD of the protein, either way, in both replicates (recomputed)
bafetinib = compound: Cc1ccc(NC(=O)c2ccc(CN3CC[C@H](N(C)C)C3)c(C(F)(F)F)c2)cc1Nc1nccc(-c2cncnc2)n1 [bafetinib]
Outline: (§1)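 K562 cells at 2×10^6 cells/mL were given 10 μM compound for 30 min. Aliquots then went through 3 min of heating across 48°C-58°C, were pooled, and were extracted in PBS with 0.5% NP-40 at 4°C, and the supernatant after 21,000xg for 90 min was quantified by TMTpro 16plex LC-MS/MS with channel sums equalised. Thermal stability relative to control samples, from duplicates, is given as log2 fold change.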

[1] = compound: Cc1cccc(CC(=O)N2CCc3c2ccc(-c2cn(C)c4ncnc(N)c24)c3F)n1
Outline: as §1

dasatinib = compound: Cc1nc(Nc2ncc(C(=O)Nc3c(C)cccc3Cl)s2)cc(N2CCN(CCO)CC2)n1 [dasatinib]
Outline: as §1

[2] = compound: Cn1cc(-c2ccc3c(c2)CCN3C(=O)Cc2cccc(C(F)(F)F)c2)c2c(N)ncnc21
Outline: as §1

[3] = compound: Cn1cc(-c2ccc3nnc(C(F)(F)c4ccc5ncccc5c4)n3n2)cn1
Outline: as §1

mubritinib = compound: FC(F)(F)c1ccc(/C=C/c2nc(COc3ccc(CCCCn4ccnn4)cc3)co2)cc1 [mubritinib]
Outline: as §1

[4] = compound: NC(=O)c1cnc(N[C@@H]2CCCC[C@@H]2N)nc1Nc1cccc(-n2nccn2)c1
Outline: as §1

[5] = compound: NC1(c2ccc(-c3nc4ccn5c(=O)[nH]nc5c4cc3-c3ccccc3)cc2)CCC1
Outline: as §1

[6] = compound: NCC(=O)Nc1ccc(-n2nc(C(F)(F)F)cc2-c2ccc3c(ccc4ccccc43)c2)cc1
Outline: as §1

vorinostat = compound: O=C(CCCCCCC(=O)Nc1ccccc1)NO [vorinostat]
Outline: as §1

citarinostat = compound: O=C(CCCCCCNC(=O)c1cnc(N(c2ccccc2)c2ccccc2Cl)nc1)NO [citarinostat]
Outline: as §1

silmitasertib = compound: O=C(O)c1ccc2c(c1)nc(Nc1cccc(Cl)c1)c1ccncc12 [silmitasertib]
Outline: as §1

[7] = compound: O=C1NC(=O)C(c2cnc3ccccn23)=C1c1cn2c3c(cc(F)cc13)CN(C(=O)N1CCCCC1)CC2
Outline: as §1

[8] = compound: c1cc(OCCN2CCCCC2)cc(-c2n[nH]c3ccc(-c4nnc[nH]4)cc23)c1
Outline: as §1

tipifarnib = compound: Cn1cncc1[C@@](N)(c1ccc(Cl)cc1)c1ccc2c(c1)c(-c1cccc(Cl)c1)cc(=O)n2C [tipifarnib]
Outline: as §1

[9] = compound: NC(=O)Nc1cc(-c2cccc(F)c2)sc1C(=O)N[C@H]1CCCNC1
Outline: as §1

entinostat = compound: Nc1ccccc1NC(=O)c1ccc(CNC(=O)OCc2cccnc2)cc1 [entinostat]
Outline: as §1

nilotinib = compound: Cc1cn(-c2cc(NC(=O)c3ccc(C)c(Nc4nccc(-c5cccnc5)n4)c3)cc(C(F)(F)F)c2)cn1 [nilotinib]
Outline: as §1

[10] = compound: Cc1nc(Nc2n[nH]c3c2CN(C(=O)N[C@H](CN(C)C)c2ccccc2)C3(C)C)c2sccc2n1
Outline: as §1

[11] = compound: Cc1ncc(-c2ccnc(Nc3ccc(S(C)(=O)=O)cc3)n2)n1C(C)C
Outline: as §1

Measured: log2 fold change

MICAL2 (UniProt O94851)
inactive: bafetinib 0.023 | [1] -0.066 | dasatinib -0.053 | [2] -0.076 | [3] 0 | mubritinib -0.414 | [4] -0.201 | [5] 0.094 | [6] -0.092 | vorinostat -0.019 | citarinostat 0.047 | silmitasertib 0.186 | [7] 0.052 | [8] -0.232

MLKL (UniProt Q8NB16)
inactive: [1] 0.156 | [2] 0.047 | tipifarnib -0.208 | [9] -0.159 | [6] -0.015 | entinostat 0.052 | vorinostat 0.074 | citarinostat 0.006 | [7] 0.206 | [8] -0.083

MICALL1 (UniProt Q8N3F8)
inactive: [1] -0.068 | nilotinib 0.056 | [10] -0.028 | dasatinib 0.014 | [11] -0.045 | [2] -0.08 | [3] 0.038 | tipifarnib 0.051 | mubritinib -0.093 | [9] -0.133 | [4] -0.022 | [5] -0.29 | [6] -0.149 | entinostat -0.07 | vorinostat -0.017 | citarinostat -0.008 | silmitasertib -0.042 | [7] -0.041 | [8] -0.093

MLST8 (UniProt Q9BVC4)
inactive: bafetinib 0.005 | nilotinib -0.125 | [10] 0.085 | dasatinib -0.152 | [11] -0.059 | [2] 0.028 | tipifarnib -0.109 | mubritinib 0.1 | [9] 0.064 | [4] -0.201 | [5] -0.182 | [6] -0.082 | entinostat 0.127 | citarinostat 0.043 | silmitasertib 0.105 | [7] -0.03 | [8] -0.025

MITF (UniProt O75030)
inactive: [1] 0.001 | nilotinib -0.071 | [10] -0.07 | [11] -0.047 | mubritinib 0.084 | [9] -0.023 | [4] 0.021 | [5] -0.11 | [6] 0.302 | entinostat -0.048 | vorinostat 0.2 | citarinostat 0.083 | silmitasertib 0.071 | [8] -0.022

MLLT10 (UniProt P55197)
inactive: bafetinib -0.055 | [1] 0.158 | [3] -0.337 | tipifarnib 0.271 | mubritinib 0.159 | [5] 0.004 | vorinostat 0.247 | silmitasertib -0.364 | [7] 0.081

MPC1 (UniProt Q9Y5U8)
inactive: bafetinib 0.127 | nilotinib -0.116 | [10] 0.005 | dasatinib -0.038 | [11] -0.021 | [2] 0.243 | [3] 0.035 | tipifarnib -0.177 | mubritinib -0.005 | [9] 0.202 | [4] 0.109 | [5] 0.037 | entinostat 0.045 | citarinostat -0.069 | silmitasertib -0.074 | [8] 0.422
